Activity change, negative = inhibition data for one molecule are collected here from PubChem BioAssay AID2398 (Broad Institute, 2010).

The nature of this test: Blocking PAR1-agonist-triggered platelet dense granule ATP secretion in human PRP, luminescent 384-well dose-response confirmation (AID 2398). The settings on record: human platelet-rich plasma, SFLLRN-induced dense granule ATP release, luminescence; at 50 µM (top of the series).

The list shows a part of the results. Measured potencies and affinities stand elsewhere. Entries without a call are filed as inconclusive in the source.

Consider `CC(=O)Nc1cccc(NC(=O)c2cccc(Cl)c2)c1`, for which the activity change, negative = inhibition is -40.7%.
